PubChem BioAssay AID1224830, NIAID – 2016

- Assay: 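Host factors that control LPS-induced TNF expression in human macrophages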 (primary screen)
- Cells: human THP-1 monocytic leukaemia cells, TNF dual-luciferase reporter clone, PMA-differentiated to macrophage-like cells
- Knock-down reagent: siRNA pool against human genes, 50 nM
- Duration: LPS for 4 h, given about 3 days after siRNA transfection
- Conditions: bacterial LPS (TLR4 ligand), 10 ng/ml
- Read-out: 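TNF firefly reporter luminescence divided by renilla, normalised to the plate median, then turned into a robust z-score for each replicate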
- Reading the numbers: TNF reporter robust z-score: higher = stronger TNF reporter response to LPS
- Hit rule: 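a well is active when its z-score exceeds 2.8 or falls below -1.5; control wells carry no call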
The deposit covers about 18,000 reagents; below is a part drawn at random. About 2,900 of them (16%) count as active. 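Calls are made per well; low scores hint the gene aids the LPS response, high scores that it dampens it.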 Repeated entries: four replicate wells of each siRNA pool.

After knock-down of ADGRV1 the results were TNF reporter robust z-score 0.25; inactive.
For ADGRV1, the values are TNF reporter robust z-score 0.45; inactive.
Knock-down of ADGRV1 came out at: TNF reporter robust z-score 0.28; inactive.
With knock-down of ADGRV1 the results were TNF reporter robust z-score 1.26; inactive.
Depletion of ITPR1 gave: TNF reporter robust z-score 0.43; inactive.
ITPR1 gave TNF reporter robust z-score 0.3; inactive.
After knock-down of ITPR1, the screen gave TNF reporter robust z-score -0.06; inactive.
Depletion of ITPR1 resulted in: TNF reporter robust z-score 1.2; inactive.
UBXN8 scored TNF reporter robust z-score -0.6; inactive.
For UBXN8, the entry reads TNF reporter robust z-score 0.32; inactive.
Knock-down of UBXN8 resulted in: TNF reporter robust z-score -1.47; inactive.
UBXN8 gave TNF reporter robust z-score -0.82; inactive.
With knock-down of VWF the results were TNF reporter robust z-score -0.63; inactive.
After knock-down of VWF, the screen gave TNF reporter robust z-score 0.2; inactive.
For VWF, the entry reads TNF reporter robust z-score -0.8; inactive.
VWF scored TNF reporter robust z-score 0.45; inactive.
Silencing of TSPAN10 came out at: TNF reporter robust z-score 0.61; inactive.
Silencing of TSPAN10 resulted in: TNF reporter robust z-score 0.47; inactive.
Silencing of TSPAN10 resulted in: TNF reporter robust z-score -0.48; inactive.
TSPAN10 showed TNF reporter robust z-score -0.3; inactive.
For NLGN1, the values are TNF reporter robust z-score -0.96; inactive.
For NLGN1, the entry reads TNF reporter robust z-score -1.86; active.
After knock-down of NLGN1 the results were TNF reporter robust z-score -0.25; inactive.
Against NLGN1, the entry reads TNF reporter robust z-score -1.33; inactive.
Against FH, the entry reads TNF reporter robust z-score 0.02; inactive.
FH showed TNF reporter robust z-score 1.17; inactive.
For FH, the entry reads TNF reporter robust z-score -0.32; inactive.
For FH the deposit lists TNF reporter robust z-score -0.65; inactive.
After knock-down of DUX1, the screen gave TNF reporter robust z-score -0.95; inactive.
DUX1 gave TNF reporter robust z-score -0.37; inactive.
With knock-down of DUX1 the results were TNF reporter robust z-score -0.42; inactive.
Depletion of DUX1 gave: TNF reporter robust z-score 0.16; inactive.

5 entries from above, ordered by “TNF reporter robust z-score”, highest first:
TSPAN10 — TNF reporter robust z-score = 0.61; outcome = inactive
VWF — TNF reporter robust z-score = 0.45; outcome = inactive
VWF — TNF reporter robust z-score = 0.2; outcome = inactive
VWF — TNF reporter robust z-score = -0.63; outcome = inactive
VWF — TNF reporter robust z-score = -0.8; outcome = inactive
